Drawing on US20250009808A1, this text covers binding for two molecules.

Results are given in words; binding and its absence hold for the method and conditions named. Some entries that bind do so weakly or less than the wild type. Where a sequence is shown, tags or fusion partners need not be part of it.

The target of assay [1] is T1, rat RT1A class I histocompatibility antigen (rat (Rattus norvegicus)) (UniProt P16391).
T1 sequence (MHC heavy): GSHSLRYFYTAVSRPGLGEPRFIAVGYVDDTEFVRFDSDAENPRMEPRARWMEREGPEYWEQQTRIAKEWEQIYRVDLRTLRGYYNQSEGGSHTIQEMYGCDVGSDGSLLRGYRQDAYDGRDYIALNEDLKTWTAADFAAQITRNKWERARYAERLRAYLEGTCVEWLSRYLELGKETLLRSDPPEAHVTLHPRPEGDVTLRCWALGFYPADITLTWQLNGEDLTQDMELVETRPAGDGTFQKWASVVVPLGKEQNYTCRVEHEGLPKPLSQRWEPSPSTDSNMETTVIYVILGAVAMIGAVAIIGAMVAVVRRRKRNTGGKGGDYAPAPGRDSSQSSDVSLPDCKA
The assay can be described thus: magnetic negative selection of rat cells from a xenomixture, with a magnetic bead conjugated secondary antibody.

Assay [2] concerns the target T1, rat RT1A class I histocompatibility antigen (rat (Rattus norvegicus)). Kind of assay: rat cells with unconjugated primary and magnetic secondary antibody; percent of cells retained on magnetic column (positive control).
The target is the same in assay [3]. The assay can be described thus: rat cells with bead-conjugated antibody; retention on magnetic column.

B1: anti-RT1A antibody (aRT1), mouse IgG1 / mouse kappa, encoded by SEQ ID NO:14 and SEQ ID NO:17 (antibody, V domains shown)
VH: EVQLQESGPSLVKPSQTLSLTCSVTGDSITSGYWNWIRKFPGNKLEYMGYISYSGSTYYNPSLKSRISITRDTSKNQYYLQLNSVTTEDTATYYCASHSHWYFDVWGAGTTVTVSS
VL: DIQMTQTTSSLSASLGDRVTISCRASQDISNYLNWYQQKPDGTVKLLIYYTSRLHSGVPSRFSGSGSGTDYSLTISNLEQEDIATYFCQQGNTLPWTFGGGTKLEIKR
Turning to B1, the binding entry in assay [1] and in assay [2] was “binds” throughout.

B2: direct-magnetic-bead conjugated anti-RT1A antibody (antibody, V domains shown)
VH: B1 VH
VL: B1 VL
For B2, the binding result in assay [3] was “binds”.
